Taken from: PubChem BioAssay AID1259308 (NCATS, 2017)
Assay: 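Candidate targets for better recombinant protein yield in mammalian cells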 (primary screen). Cells: human HEK293 embryonic kidney cells stably expressing firefly luciferase (HEK-CMV-Luc2-Hygro). Knock-down reagent: single siRNA against human genes, 0.8 pmol siRNA per well. Time to read-out: 72 h. Measured: 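Luciferase light (ONE-Glo) measured on one replicate plate set and viability (CellTiter-Glo) on the other, scaled to a negative control siRNA, with robust z-scores and luciferase per cell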. Direction: total luciferase, z-score and total luciferase, % of control: higher = more reporter protein produced; luciferase per cell, z-score: higher = more reporter output per viable cell; viable cells, % of control: higher = more viable cells. Active means: 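An siRNA counts as active if its total luciferase robust z-score exceeds 3; genes with two or more such siRNAs out of three were retested with fresh siRNAs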. Meaning of the calls: active = raised luciferase; inactive = no rise.
The whole screen tested about 59,000 reagents; this is a part drawn at random. Over the whole deposit, about 1,510 (2.6%) are marked active. 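Calls use total luciferase alone and ignore viability, so some active siRNAs may act by altering cell number.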 The numbers tell different reagents against one gene apart.

| Gene | reagent | total luciferase, z-score | total luciferase, % of control | luciferase per cell, z-score | viable cells, % of control | outcome |
| --- | --- | --- | --- | --- | --- | --- |
| IQGAP1 | 1 | 0.349 | 88.8 | -0.0143 | 99.6 | inactive |
| IQGAP1 | 2 | 0.693 | 95.7 | -0.29 | 115 | inactive |
| IQGAP1 | 3 | -0.153 | 78.8 | -0.512 | 101 | inactive |
| NTAN1 | 1 | 2.42 | 130 | 2.87 | 68.2 | inactive |
| NTAN1 | 2 | 0.2 | 85.9 | 1.01 | 73.5 | inactive |
| NTAN1 | 3 | -0.256 | 76.8 | -0.0924 | 87.9 | inactive |
| P2RX5 | 1 | -0.299 | 75.9 | -1.23 | 117 | inactive |
| P2RX5 | 2 | -0.478 | 72.4 | -1.4 | 117 | inactive |
| P2RX5 | 3 | -0.943 | 63.1 | -0.321 | 76.8 | inactive |
| KLF5 | 1 | 0.576 | 93.3 | 0.333 | 95.6 | inactive |
| KLF5 | 2 | 1.11 | 104 | 1.55 | 77.3 | inactive |
| KLF5 | 3 | 0.325 | 88.3 | 1.1 | 73.8 | inactive |
| DIPK1B | 1 | 0.449 | 90.8 | 0.716 | 84 | inactive |
| DIPK1B | 2 | 0.677 | 95.3 | 0.332 | 97.6 | inactive |
| DIPK1B | 3 | 0.778 | 97.4 | 0.186 | 104 | inactive |
| MARCHF3 | 1 | 6.09 | 203 | 3.74 | 84.7 | active |
| MARCHF3 | 2 | -1.22 | 57.5 | -0.497 | 73.3 | inactive |
| MARCHF3 | 3 | 2.23 | 126 | 1.14 | 105 | inactive |
| SREK1IP1 | 1 | 1.39 | 110 | 3.92 | 43.7 | inactive |
| SREK1IP1 | 2 | -0.52 | 71.5 | -0.679 | 95.6 | inactive |
| SREK1IP1 | 3 | -0.784 | 66.3 | -0.913 | 94.2 | inactive |
| NSMCE2 | 1 | 0.619 | 94.2 | 0.695 | 87.7 | inactive |
| NSMCE2 | 2 | 1.8 | 118 | 1.61 | 86.1 | inactive |
| NSMCE2 | 3 | 3.34 | 148 | 2.32 | 89.9 | active |
| PRR7 | 1 | -0.11 | 79.7 | -0.201 | 93.9 | inactive |
| PRR7 | 2 | 0.736 | 96.5 | 0.969 | 83.6 | inactive |
| PRR7 | 3 | 0.11 | 84.1 | -0.858 | 118 | inactive |
| TATDN3 | 1 | 1.4 | 110 | 1.97 | 72.9 | inactive |
| TATDN3 | 2 | -0.213 | 77.6 | -0.28 | 93.4 | inactive |
| TATDN3 | 3 | -1.09 | 60.1 | -0.691 | 80.6 | inactive |
| KIAA0319 | 1 | -1.75 | 47 | -1.19 | 71.8 | inactive |
| KIAA0319 | 2 | -0.901 | 64 | -0.978 | 92.5 | inactive |
| KIAA0319 | 3 | 0.568 | 93.2 | 0.608 | 88.7 | inactive |
| TRIM63 | 1 | -0.859 | 64.8 | -0.644 | 85.8 | inactive |
| TRIM63 | 2 | -0.2 | 77.9 | -0.129 | 90.1 | inactive |
| TRIM63 | 3 | 0.695 | 95.7 | 1.05 | 81.2 | inactive |
| ENO4 | 1 | 2.18 | 125 | 3.14 | 61.3 | inactive |
| ENO4 | 2 | 1.27 | 107 | 1.94 | 71.7 | inactive |
| ENO4 | 3 | 3.84 | 158 | 1.6 | 116 | active |
| SPATA22 | 1 | -0.22 | 77.5 | -0.692 | 104 | inactive |
| SPATA22 | 2 | -1.16 | 58.9 | -1.73 | 104 | inactive |
| SPATA22 | 3 | -1.23 | 57.5 | -1.75 | 102 | inactive |
| PCYT2 | 1 | -0.17 | 78.5 | -0.27 | 94.2 | inactive |
| PCYT2 | 2 | 0.51 | 92 | 0.15 | 98.9 | inactive |
| PCYT2 | 3 | 0.396 | 89.8 | 0.558 | 86.6 | inactive |
| PROK1 | 1 | 0.395 | 89.7 | 0.485 | 88.3 | inactive |
| PROK1 | 2 | 0.57 | 93.2 | -0.0766 | 106 | inactive |
| PROK1 | 3 | -0.484 | 72.3 | -1.07 | 107 | inactive |
| USP16 | 1 | -0.387 | 74.2 | -0.707 | 99.8 | inactive |
| USP16 | 2 | 0.481 | 91.4 | 0.0504 | 101 | inactive |
| USP16 | 3 | -0.579 | 70.4 | 0.375 | 71.2 | inactive |
| PCDHAC2 | 1 | -0.147 | 79 | -0.154 | 91.9 | inactive |
| PCDHAC2 | 2 | -0.0946 | 80 | 0.271 | 83.2 | inactive |
| PCDHAC2 | 3 | -2.48 | 32.6 | -2.41 | 68.7 | inactive |
| NRBP2 | 1 | 4.45 | 170 | 3.9 | 68.2 | active |
| NRBP2 | 2 | -1.06 | 60.8 | -1.65 | 105 | inactive |
| NRBP2 | 3 | -1.7 | 48.1 | 1.28 | 38.4 | inactive |
| UGT2B10 | 1 | -0.601 | 69.9 | -0.392 | 86.6 | inactive |
| UGT2B10 | 2 | -0.0253 | 81.4 | -0.36 | 100 | inactive |
| UGT2B10 | 3 | 1.16 | 105 | 0.546 | 102 | inactive |
| EIF1B | 1 | -0.75 | 67 | -1.15 | 101 | inactive |
| EIF1B | 2 | 0.853 | 98.9 | 0.161 | 106 | inactive |
| EIF1B | 3 | 0.235 | 86.6 | -0.0895 | 99 | inactive |
| REC8 | 1 | -0.0178 | 81.5 | -0.0178 | 91.5 | inactive |
| REC8 | 2 | 1.16 | 105 | 1.15 | 86.6 | inactive |
| REC8 | 3 | -0.326 | 75.4 | -0.14 | 87.4 | inactive |
| SH3RF3 | 1 | 0.207 | 86 | 0.385 | 86.9 | inactive |
| SH3RF3 | 2 | -0.736 | 67.2 | -0.715 | 90.7 | inactive |
| SH3RF3 | 3 | 1.88 | 119 | 1.43 | 91.6 | inactive |
| SIRPD | 1 | -0.036 | 81.2 | 0.0421 | 89.7 | inactive |
| SIRPD | 2 | -0.307 | 75.8 | -1.09 | 113 | inactive |
| SIRPD | 3 | 0.0436 | 82.8 | -0.0928 | 94.8 | inactive |
| OR5K1 | 1 | 0.833 | 98.4 | 0.426 | 98.3 | inactive |
| OR5K1 | 2 | -0.323 | 75.5 | -0.488 | 95.9 | inactive |
| OR5K1 | 3 | 3.67 | 155 | 2.88 | 81 | active |

A run of entries of the results above:
| Gene | reagent | total luciferase, z-score | total luciferase, % of control | luciferase per cell, z-score | viable cells, % of control | outcome |
| --- | --- | --- | --- | --- | --- | --- |
| PCDHAC2 | 1 | -0.147 | 79 | -0.154 | 91.9 | inactive |
| PCDHAC2 | 2 | -0.0946 | 80 | 0.271 | 83.2 | inactive |
| PCDHAC2 | 3 | -2.48 | 32.6 | -2.41 | 68.7 | inactive |
| NRBP2 | 1 | 4.45 | 170 | 3.9 | 68.2 | active |
| NRBP2 | 2 | -1.06 | 60.8 | -1.65 | 105 | inactive |
| NRBP2 | 3 | -1.7 | 48.1 | 1.28 | 38.4 | inactive |
| UGT2B10 | 1 | -0.601 | 69.9 | -0.392 | 86.6 | inactive |
| UGT2B10 | 2 | -0.0253 | 81.4 | -0.36 | 100 | inactive |
